Values quoted from earlier work in PMC8491162, “Targeting the JAK/STAT Pathway: A Combined Ligand- and Target-Based Approach” (Journal of Chemical Information and Modeling, 2021).

Protein sequences, listed by entry. Tags and fused reporters are not part of them. Lines headed by an entry give the natural chain unless they say otherwise; changes in a name come on top.
UniProt O60674: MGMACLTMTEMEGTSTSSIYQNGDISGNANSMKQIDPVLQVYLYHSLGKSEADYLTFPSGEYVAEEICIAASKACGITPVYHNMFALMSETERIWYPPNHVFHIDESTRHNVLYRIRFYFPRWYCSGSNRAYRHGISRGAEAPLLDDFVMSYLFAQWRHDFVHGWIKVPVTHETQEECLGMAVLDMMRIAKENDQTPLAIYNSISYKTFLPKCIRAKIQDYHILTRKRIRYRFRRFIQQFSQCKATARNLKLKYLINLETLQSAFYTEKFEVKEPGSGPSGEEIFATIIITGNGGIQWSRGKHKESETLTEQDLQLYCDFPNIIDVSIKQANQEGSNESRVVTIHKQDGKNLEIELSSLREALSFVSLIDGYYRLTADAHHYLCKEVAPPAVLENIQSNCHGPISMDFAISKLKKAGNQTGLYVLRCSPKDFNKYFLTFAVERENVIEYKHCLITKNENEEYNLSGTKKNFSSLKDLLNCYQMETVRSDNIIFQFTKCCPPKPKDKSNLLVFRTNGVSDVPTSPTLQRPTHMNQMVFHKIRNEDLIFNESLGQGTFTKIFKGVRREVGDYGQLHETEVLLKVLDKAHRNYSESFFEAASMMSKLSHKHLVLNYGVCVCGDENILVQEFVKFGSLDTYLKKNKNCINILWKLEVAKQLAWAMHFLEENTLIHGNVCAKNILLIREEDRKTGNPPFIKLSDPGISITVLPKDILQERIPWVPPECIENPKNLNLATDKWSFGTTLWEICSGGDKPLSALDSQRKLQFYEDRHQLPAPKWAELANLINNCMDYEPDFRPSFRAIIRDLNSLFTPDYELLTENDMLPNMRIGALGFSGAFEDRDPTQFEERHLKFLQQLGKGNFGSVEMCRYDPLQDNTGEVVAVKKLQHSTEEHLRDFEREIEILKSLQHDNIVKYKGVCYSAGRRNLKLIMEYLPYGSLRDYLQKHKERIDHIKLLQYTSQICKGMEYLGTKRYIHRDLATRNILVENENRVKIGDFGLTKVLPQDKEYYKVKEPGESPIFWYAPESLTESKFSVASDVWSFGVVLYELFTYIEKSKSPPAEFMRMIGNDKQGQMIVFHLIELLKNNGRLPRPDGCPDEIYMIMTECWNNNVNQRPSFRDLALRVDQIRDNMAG

Target: T1, JAK2 (Homo sapiens, UniProt O60674)
T1 construct: purchased BPS Bioscience
Design: method as in earlier work
Conditions: Figure 13; read-out: IC50 of commercially available JAK2 inhibitors; cited from earlier work

For `CC(C)(O)C(=O)N1CCN(c2ccc(C(F)(F)F)c(C3=C(c4c[nH]c5ccccc45)C(=O)NC3=O)c2)CC1` [TCS21311], the IC50 is given as 2600 nM.
